Source: the supplement of paper PMC6411743
± gives the standard deviation of the averaged measurements. Some of the results follow.

Legend:
Experiment in all cases: NP40-soluble protein abundance relative to vehicle (solubility fold change) (ratio); higher = more soluble protein in presence of GTP
[1] = target: T1, A0A0A0MSG2|J3KNW4 and related entries (UniProt Q14192)
T1 sequence (whole entry): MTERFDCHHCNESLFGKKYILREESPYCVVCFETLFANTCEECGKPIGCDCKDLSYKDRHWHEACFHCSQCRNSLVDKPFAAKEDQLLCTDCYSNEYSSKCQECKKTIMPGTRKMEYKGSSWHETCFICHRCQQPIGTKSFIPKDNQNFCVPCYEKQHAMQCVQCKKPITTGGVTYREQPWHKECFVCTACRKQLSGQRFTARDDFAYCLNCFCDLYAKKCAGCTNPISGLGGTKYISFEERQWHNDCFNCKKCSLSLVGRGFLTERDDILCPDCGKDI
Procedure, shortened: (§1)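 Values are fold changes against the detergent-processed vehicle, based on vsn-normalised intensities. Jurkat crude lysate was treated at eight concentrations from 0.1 to 10 mM (10 min at room temperature, then 3 min at 37 °C), solubilised with 0.8% NP40 and benzonase, ultracentrifuged and analysed by TMT-labelled LC-MS/MS over three independent experiments.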

A0A0A0MTG4|P82094 = target: T2, A0A0A0MTG4|P82094 (UniProt P82094)
T2 sequence (whole entry): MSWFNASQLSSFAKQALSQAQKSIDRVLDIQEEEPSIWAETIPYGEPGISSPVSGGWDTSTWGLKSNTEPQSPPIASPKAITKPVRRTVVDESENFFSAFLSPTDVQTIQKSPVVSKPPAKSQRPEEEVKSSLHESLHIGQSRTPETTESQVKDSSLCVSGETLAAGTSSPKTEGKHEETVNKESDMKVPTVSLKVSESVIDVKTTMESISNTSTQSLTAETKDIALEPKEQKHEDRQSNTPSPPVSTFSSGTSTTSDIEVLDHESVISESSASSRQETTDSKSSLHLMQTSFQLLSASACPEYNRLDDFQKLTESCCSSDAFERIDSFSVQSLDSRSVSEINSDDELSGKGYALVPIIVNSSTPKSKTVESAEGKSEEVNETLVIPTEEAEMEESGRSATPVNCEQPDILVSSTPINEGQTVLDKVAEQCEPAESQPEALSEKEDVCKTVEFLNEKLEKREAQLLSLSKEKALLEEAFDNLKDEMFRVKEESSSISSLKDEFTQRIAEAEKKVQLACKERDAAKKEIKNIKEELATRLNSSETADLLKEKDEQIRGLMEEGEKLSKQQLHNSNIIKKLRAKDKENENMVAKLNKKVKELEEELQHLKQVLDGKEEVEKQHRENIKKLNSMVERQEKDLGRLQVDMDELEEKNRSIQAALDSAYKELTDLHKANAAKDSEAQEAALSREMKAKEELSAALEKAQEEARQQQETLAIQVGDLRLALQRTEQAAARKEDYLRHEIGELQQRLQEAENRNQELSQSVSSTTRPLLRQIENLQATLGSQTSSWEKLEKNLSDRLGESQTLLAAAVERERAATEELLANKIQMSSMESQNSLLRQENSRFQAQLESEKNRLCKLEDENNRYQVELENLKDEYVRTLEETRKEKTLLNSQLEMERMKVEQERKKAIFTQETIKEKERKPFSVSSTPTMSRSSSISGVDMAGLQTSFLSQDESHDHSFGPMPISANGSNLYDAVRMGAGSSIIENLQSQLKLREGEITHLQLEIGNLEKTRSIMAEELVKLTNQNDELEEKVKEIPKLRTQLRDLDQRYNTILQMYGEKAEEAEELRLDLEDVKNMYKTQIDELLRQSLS
Procedure, shortened: as §1

A0A0A6YY96|P48200 = target: T3, A0A0A6YY96|P48200 (UniProt P48200)
T3 sequence (whole entry): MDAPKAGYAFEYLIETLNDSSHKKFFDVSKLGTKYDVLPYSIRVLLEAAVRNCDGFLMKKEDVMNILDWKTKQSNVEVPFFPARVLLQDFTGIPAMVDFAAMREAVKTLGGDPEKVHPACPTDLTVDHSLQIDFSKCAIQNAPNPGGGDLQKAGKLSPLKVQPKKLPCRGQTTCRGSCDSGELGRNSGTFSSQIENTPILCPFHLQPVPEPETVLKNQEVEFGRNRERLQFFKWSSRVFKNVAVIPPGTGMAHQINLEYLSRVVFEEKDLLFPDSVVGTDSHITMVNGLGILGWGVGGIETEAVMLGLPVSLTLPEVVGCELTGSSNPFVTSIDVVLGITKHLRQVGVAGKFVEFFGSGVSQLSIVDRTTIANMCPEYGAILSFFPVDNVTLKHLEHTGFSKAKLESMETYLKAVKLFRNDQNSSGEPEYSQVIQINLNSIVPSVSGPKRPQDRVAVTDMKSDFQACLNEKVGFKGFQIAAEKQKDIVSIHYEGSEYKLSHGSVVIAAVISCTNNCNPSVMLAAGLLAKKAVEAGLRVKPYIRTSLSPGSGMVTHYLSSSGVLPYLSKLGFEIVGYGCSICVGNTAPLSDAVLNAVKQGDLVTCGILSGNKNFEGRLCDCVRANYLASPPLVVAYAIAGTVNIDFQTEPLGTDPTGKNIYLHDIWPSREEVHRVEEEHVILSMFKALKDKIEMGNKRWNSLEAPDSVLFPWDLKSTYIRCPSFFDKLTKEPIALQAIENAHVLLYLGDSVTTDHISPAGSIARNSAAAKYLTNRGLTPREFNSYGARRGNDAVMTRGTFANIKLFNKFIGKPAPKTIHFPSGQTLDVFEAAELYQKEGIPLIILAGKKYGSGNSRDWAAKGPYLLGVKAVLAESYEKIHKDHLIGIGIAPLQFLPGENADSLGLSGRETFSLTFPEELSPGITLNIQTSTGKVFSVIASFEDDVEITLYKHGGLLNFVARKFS
Procedure, shortened: as §1

[2] = target: T4, A0A0C4DFN1|Q8IWA4 and related entries (UniProt Q8IWA4)
T4 sequence (whole entry): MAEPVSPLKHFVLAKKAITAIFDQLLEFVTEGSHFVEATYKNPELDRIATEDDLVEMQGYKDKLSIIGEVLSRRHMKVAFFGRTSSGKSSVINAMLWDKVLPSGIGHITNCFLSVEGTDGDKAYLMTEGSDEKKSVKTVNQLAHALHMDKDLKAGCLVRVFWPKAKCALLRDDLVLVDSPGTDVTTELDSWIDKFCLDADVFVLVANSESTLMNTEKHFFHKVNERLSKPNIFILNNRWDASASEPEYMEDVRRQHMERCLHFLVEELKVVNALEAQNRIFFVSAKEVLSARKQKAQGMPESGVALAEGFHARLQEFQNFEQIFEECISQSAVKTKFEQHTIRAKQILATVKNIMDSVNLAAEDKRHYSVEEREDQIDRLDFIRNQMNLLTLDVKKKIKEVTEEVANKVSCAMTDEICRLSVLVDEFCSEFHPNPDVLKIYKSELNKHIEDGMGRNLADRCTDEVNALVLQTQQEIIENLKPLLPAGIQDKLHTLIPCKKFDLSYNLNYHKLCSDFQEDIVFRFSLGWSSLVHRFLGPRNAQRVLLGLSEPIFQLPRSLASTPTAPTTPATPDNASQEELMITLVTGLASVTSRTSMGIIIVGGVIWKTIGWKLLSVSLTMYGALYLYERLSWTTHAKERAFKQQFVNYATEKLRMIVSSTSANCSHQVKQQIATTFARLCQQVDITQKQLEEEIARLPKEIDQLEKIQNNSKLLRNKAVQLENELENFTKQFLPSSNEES
Procedure, shortened: as §1

Nc1nc2c(ncn2[C@@H]2O[C@H](COP(=O)(O)OP(=O)(O)OP(=O)(O)O)[C@@H](O)[C@H]2O)c(=O)[nH]1 [guanosine triphosphate]
NP40-soluble protein abundance ([1]; concentration: 4mM): 1.2 ± 0.27
NP40-soluble protein abundance ([1]; concentration: 6mM): 1.13 ± 0.089
NP40-soluble protein abundance ([1]; concentration: 8mM): 1.13 ± 0.19
NP40-soluble protein abundance ([1]; concentration: 10mM): 1.11 ± 0.22
NP40-soluble protein abundance (A0A0A0MTG4|P82094; concentration: 0.1mM): 0.953 ± 0.043
NP40-soluble protein abundance (A0A0A0MTG4|P82094; concentration: 0.5mM): 0.939 ± 0.086
NP40-soluble protein abundance (A0A0A0MTG4|P82094; concentration: 1mM): 0.947 ± 0.077
NP40-soluble protein abundance (A0A0A0MTG4|P82094; concentration: 2mM): 0.913 ± 0.096
NP40-soluble protein abundance (A0A0A0MTG4|P82094; concentration: 4mM): 0.91 ± 0.057
NP40-soluble protein abundance (A0A0A0MTG4|P82094; concentration: 6mM): 0.916 ± 0.07
NP40-soluble protein abundance (A0A0A0MTG4|P82094; concentration: 8mM): 0.933 ± 0.033
NP40-soluble protein abundance (A0A0A0MTG4|P82094; concentration: 10mM): 0.948 ± 0.069
NP40-soluble protein abundance (A0A0A6YY96|P48200; concentration: 0.1mM): 0.978 ± 0.091
NP40-soluble protein abundance (A0A0A6YY96|P48200; concentration: 0.5mM): 0.968 ± 0.095
NP40-soluble protein abundance (A0A0A6YY96|P48200; concentration: 1mM): 0.922 ± 0.062
NP40-soluble protein abundance (A0A0A6YY96|P48200; concentration: 2mM): 0.946 ± 0.083
NP40-soluble protein abundance (A0A0A6YY96|P48200; concentration: 4mM): 0.939 ± 0.064
NP40-soluble protein abundance (A0A0A6YY96|P48200; concentration: 6mM): 0.929 ± 0.076
NP40-soluble protein abundance (A0A0A6YY96|P48200; concentration: 8mM): 0.906 ± 0.013
NP40-soluble protein abundance (A0A0A6YY96|P48200; concentration: 10mM): 0.943 ± 0.039
NP40-soluble protein abundance ([2]; concentration: 0.1mM): 1.04 ± 0.019
NP40-soluble protein abundance ([2]; concentration: 0.5mM): 1.02 ± 0.061
NP40-soluble protein abundance ([2]; concentration: 1mM): 0.981 ± 0.019
NP40-soluble protein abundance ([2]; concentration: 2mM): 0.941 ± 0.018
NP40-soluble protein abundance ([2]; concentration: 4mM): 0.929 ± 0.065
NP40-soluble protein abundance ([2]; concentration: 6mM): 0.948 ± 0.072
